{"source": "PubChem BioAssay AID1259415", "about": "(National Center for Advancing Translational Sciences (NCATS), 2018)", "note": "Among all 410,000 compounds or so, about 18,000 (4.4%) were called active. Inconclusive results, whose numbers are uncertain, are shown with a selection of clear calls. Cut-off read from the data, not from the text of the source: active = activity change below about -60%; inconclusive = no clear call, values can overlap the other calls; inactive = above about -39%. % is set by controls: 0 for no effect and ±100 for the full control effect.", "data": [{"assay": "qHTS Assay for inhibitors of the human cytomegalovirus (HCMV)", "settings": "HFF cells, HCMV-luciferase reporter, 72 h; at 57.5 µM; hits give low values", "procedure,_shortened": "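Screen run at 2 compound doses on HFFs infected with reporter HCMV, MOI 1 PFU/cell. Luciferase activity from cell lysates at 72 h post infection gave inhibition relative to buffer-only and Salinomycin wells.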", "values": [{"smiles": "CCS(=O)(=O)N1CC(=O)N(c2cc(Cl)ccc2C)C(C)(C(=O)NC2CCCCCC2)C1", "note": "(stereo unspecified)", "activity change, negative = inhibition": "inconclusive: 0%"}, {"smiles": "O=C(COc1ccc(Br)cc1Br)NC1CCS(=O)(=O)C1", "note": "(stereo unspecified)", "activity change, negative = inhibition": "inconclusive: -48.7%"}, {"smiles": "COc1cnc(-c2ccccn2)nc1Sc1ccc(F)cc1", "activity change, negative = inhibition": "inconclusive: -52.8%"}, {"smiles": "Cc1ccc(NC(=O)Cn2cncc2-c2ccc([N+](=O)[O-])cc2)cc1C", "activity change, negative = inhibition": "inconclusive: -47.2%"}, {"smiles": "COC(=O)Oc1ccc(/C=N/NC(=O)CSCc2ccc(Cl)cc2)cc1OC", "activity change, negative = inhibition": "active: -60%"}, {"smiles": "CCCCCCn1c(COc2ccccc2F)nnc1SCC(=O)c1c(N)n(C)c(=O)n(C)c1=O", "activity change, negative = inhibition": "inactive: -33.6%"}, {"smiles": "C/C(=N\\NC(=O)c1cc(-c2cccnc2)nc2ccccc12)c1ccc(O)cc1O", "activity change, negative = inhibition": "active: -93.5%"}, {"smiles": "COc1ccc(N2CC(C(=O)Nc3nnc(SCc4cccnc4)s3)CC2=O)cc1", "note": "(stereo unspecified)", "activity change, negative = inhibition": "inconclusive: -50.4%"}, {"smiles": "COc1ccc(NC(=S)N2CCCC(c3nc4ccc(C)cc4[nH]3)C2)c(OC)c1", "note": "(stereo unspecified)", "activity change, negative = inhibition": "active: -87.1%"}, {"smiles": "Nc1cc(-c2ccccc2)nn1Cc1ccccc1", "activity change, negative = inhibition": "inconclusive: -50.1%"}, {"smiles": "COc1ccc(-c2cc3nc4c(c(=O)n3[nH]2)CCC4)cc1", "activity change, negative = inhibition": "inactive: -0.418%"}, {"smiles": "COc1cccc(-c2c(C(=O)N/N=C(\\C)c3cccnc3)nnn2-c2nonc2N)c1", "activity change, negative = inhibition": "inactive: -0.558%"}, {"smiles": "COc1ccc(/C=C2\\SC(=S)N(CCC(=O)NC3=NCCS3)C2=O)cc1OC", "activity change, negative = inhibition": "inactive: -27.1%"}, {"smiles": "COC(=O)C1CCN(C2=C(NS(=O)(=O)c3ccc(Cl)cc3)C(=O)c3ccccc3C2=O)CC1", "activity change, negative = inhibition": "inconclusive: -42.4%"}, {"smiles": "Cc1cc(C)nc(N2CCCC(C(=O)NCCc3ccc(F)cc3)C2)n1", "note": "(stereo unspecified)", "activity change, negative = inhibition": "inactive: -2.63%"}, {"smiles": "CCN1CCN(C(=S)c2ccc(OCC(=O)N3CCOCC3)cc2)CC1", "activity change, negative = inhibition": "inactive: 30.1%"}, {"smiles": "NC(=S)Nc1cc2ccccc2c2ccccc12", "activity change, negative = inhibition": "active: -72.3%"}, {"smiles": "C=C1C(=O)OC2C1CCC(C)C1C=CC(=O)C12C", "note": "(stereo unspecified)", "activity change, negative = inhibition": "active: -96.8%"}, {"smiles": "Oc1c(Br)cc(/C=N/NC(=S)NCC2CCCO2)cc1Br", "note": "(stereo unspecified)", "activity change, negative = inhibition": "inconclusive: -41.2%"}, {"smiles": "CCCCn1c(SCC(=O)Nc2ccc3c(c2)OCO3)nc2c1c(=O)n(C)c(=O)n2C", "activity change, negative = inhibition": "inconclusive: -44.9%"}, {"smiles": "COC(=O)c1cc(NC(=S)NCc2ccc(Cl)cc2)cc(C(=O)OC)c1", "activity change, negative = inhibition": "active: -76.1%"}, {"smiles": "Cc1cc2nc(-c3ccccc3)c(-c3c(F)cc(F)cc3F)nc2cc1C", "activity change, negative = inhibition": "inactive: -13.7%"}, {"smiles": "Cc1cccc(Nc2nnc(SCC(=O)c3ccc(O)cc3O)s2)c1", "activity change, negative = inhibition": "inactive: -7.75%"}, {"smiles": "COc1ccc(/C=C/C(=O)NCCOc2ccccc2OC)cc1", "activity change, negative = inhibition": "inconclusive: -59.2%"}, {"smiles": "CC(C)CNC(=O)CSc1nc(-c2cccs2)cc(C(F)(F)F)n1", "activity change, negative = inhibition": "active: -68.4%"}, {"smiles": "O=C(NCCc1cn2ccccc2n1)c1cc(COc2c(F)cccc2F)on1", "activity change, negative = inhibition": "inconclusive: -42.4%"}, {"smiles": "CC(=O)Nc1ccc(NC(=S)NC(=O)c2oc3ccccc3c2C)cc1", "activity change, negative = inhibition": "inactive: -5.37%"}, {"smiles": "Clc1ccc(SCCCCN2CCOCC2)cc1", "activity change, negative = inhibition": "inactive: -12%"}, {"smiles": "CCCCC1(CC(=O)OC)C(=O)N(c2ccccc2)N(c2ccccc2)C1=O", "activity change, negative = inhibition": "inconclusive: -46.5%"}, {"smiles": "CCC(=O)N1c2ccc(S(=O)(=O)CCC(=O)NCc3ccc(OC)cc3)cc2CC1C", "note": "(stereo unspecified)", "activity change, negative = inhibition": "inactive: 6.75%"}, {"smiles": "CCCc1c2ccccc2nc2ccccc12", "activity change, negative = inhibition": "inconclusive: -55.7%"}, {"smiles": "CC(C)(C)C1CCc2c(sc3ncn(N)c(=N)c23)C1", "note": "(stereo unspecified)", "activity change, negative = inhibition": "inconclusive: -51.7%"}, {"smiles": "CNc1snc(C)c1C(=O)OCC(=O)c1ccc(OC)c(F)c1", "activity change, negative = inhibition": "active: -73.6%"}, {"smiles": "COCCNC(=O)C(=O)NCCN1CCOCC1", "activity change, negative = inhibition": "inconclusive: -49.6%"}, {"smiles": "CCOc1ccc(N=C2SCCCN2C(=O)c2c(CC)noc2C)cc1", "activity change, negative = inhibition": "inconclusive: -44.5%"}, {"smiles": "Cc1ccc(Cn2c(C)c3cnn(CC(=O)N4CCN(c5cc(C)ccc5C)CC4)c(=O)c3c2C)cc1", "activity change, negative = inhibition": "inconclusive: -57.3%"}, {"smiles": "COc1ccc(-c2csc(NC(=S)NC(=O)c3ccco3)n2)cc1Br", "activity change, negative = inhibition": "inconclusive: -41.9%"}, {"smiles": "C=CCn1c(SCC(=O)N2CCCCCC2)nc2ccccc2c1=O", "activity change, negative = inhibition": "inconclusive: -49.7%"}, {"smiles": "O=C(Nc1cccc(O)c1)c1ccc([N+](=O)[O-])cc1Cl", "activity change, negative = inhibition": "inconclusive: -47.7%"}, {"smiles": "CCCNC(=O)c1cc(C2CCCCN2C(=O)c2cc(C(C)(C)C)nn2C)on1", "note": "(stereo unspecified)", "activity change, negative = inhibition": "inconclusive: -51.5%"}, {"smiles": "COc1ccc(S(=O)(=O)NCC(c2cccnc2)N2CCN(C)CC2)cc1C", "note": "(stereo unspecified)", "activity change, negative = inhibition": "inconclusive: -40.7%"}, {"smiles": "CCN(CC)C(=O)CSc1nc2sc3c(c2c(=O)n1CCOC)CCC3", "activity change, negative = inhibition": "inconclusive: -59.3%"}, {"smiles": "CCOC(=O)C1C(=O)CC(C)(O)C(C(=O)OCC)C1c1ccc([N+](=O)[O-])cc1", "note": "(stereo unspecified)", "activity change, negative = inhibition": "inactive: -35%"}, {"smiles": "COc1cc(C)ccc1OCc1cc(C(=O)N(Cc2c(C)nn(C)c2C)C2CC2)no1", "activity change, negative = inhibition": "inconclusive: -51.2%"}, {"smiles": "CCN1CCN(CCCNC(=O)CN2C(=O)c3cccnc3Oc3ccc(Cl)cc32)CC1", "activity change, negative = inhibition": "inconclusive: -41.6%"}, {"smiles": "CCSC1=NC2(CCN(C(=O)NC3CCCCC3)CC2)N=C1c1ccc(OC)cc1", "activity change, negative = inhibition": "inactive: -21%"}, {"smiles": "CC1(C(=O)NS(=O)(=O)C2CC2)CCCN(C(=O)c2ccco2)C1", "note": "(stereo unspecified)", "activity change, negative = inhibition": "inactive: 11.3%"}, {"smiles": "CC(C)CC(NC(=O)c1ccc(Cl)cc1)C(=O)OCC(=O)c1ccc2c(c1)NC(=O)CO2", "note": "(stereo unspecified)", "activity change, negative = inhibition": "active: -103%"}, {"smiles": "COc1cccc(OC)c1OC(=O)c1ccccc1", "activity change, negative = inhibition": "inactive: -3.88%"}, {"smiles": "COc1ccc(C(=O)NNC(=O)C(NC(=O)c2cc(OC)cc(OC)c2)C(C)C)cc1", "note": "(stereo unspecified)", "activity change, negative = inhibition": "inconclusive: -40.1%"}, {"smiles": "Cc1nn(CCCC(=O)NCc2ccco2)c(=O)c2nn(-c3ccccc3)c(C)c12", "activity change, negative = inhibition": "inconclusive: -42.2%"}, {"smiles": "O=C(Cn1nnc(-c2ccccc2)n1)N/N=C/c1cccc([N+](=O)[O-])c1", "activity change, negative = inhibition": "inconclusive: -59.9%"}, {"smiles": "COc1ccc(-n2c(=S)[nH]c3ccccc3c2=S)cc1", "activity change, negative = inhibition": "active: -64.2%"}, {"smiles": "CC12CCC(O)CC1CCC1C2CCC2(C)C(C3=CC(=O)OC3)CCC12O", "note": "(stereo unspecified)", "activity change, negative = inhibition": "active: -98.7%"}, {"smiles": "CN(C)CCCN(C(=O)c1ccc2c(c1)CCCC2)c1nc2cc3c(cc2s1)OCO3", "activity change, negative = inhibition": "inconclusive: -42.6%"}, {"smiles": "Cc1ccc(N2CCn3c2nc2c3c(=O)n(Cc3cccc(Cl)c3)c(=O)n2C)cc1C", "activity change, negative = inhibition": "inactive: -16.5%"}]}]}
